Results reported in paper PMC3334623.
No constants are given. Whether binding was seen depends on the method and setting. Binding seen in cells or lysates may run through a third protein. A yes stands for co-enrichment or nearness to the bait. Other partners may have been found. Sequences can lack the tags named with a protein.

T1: Sin3a-3xFLAG (mouse) (UniProt Q60520)
T1 sequence: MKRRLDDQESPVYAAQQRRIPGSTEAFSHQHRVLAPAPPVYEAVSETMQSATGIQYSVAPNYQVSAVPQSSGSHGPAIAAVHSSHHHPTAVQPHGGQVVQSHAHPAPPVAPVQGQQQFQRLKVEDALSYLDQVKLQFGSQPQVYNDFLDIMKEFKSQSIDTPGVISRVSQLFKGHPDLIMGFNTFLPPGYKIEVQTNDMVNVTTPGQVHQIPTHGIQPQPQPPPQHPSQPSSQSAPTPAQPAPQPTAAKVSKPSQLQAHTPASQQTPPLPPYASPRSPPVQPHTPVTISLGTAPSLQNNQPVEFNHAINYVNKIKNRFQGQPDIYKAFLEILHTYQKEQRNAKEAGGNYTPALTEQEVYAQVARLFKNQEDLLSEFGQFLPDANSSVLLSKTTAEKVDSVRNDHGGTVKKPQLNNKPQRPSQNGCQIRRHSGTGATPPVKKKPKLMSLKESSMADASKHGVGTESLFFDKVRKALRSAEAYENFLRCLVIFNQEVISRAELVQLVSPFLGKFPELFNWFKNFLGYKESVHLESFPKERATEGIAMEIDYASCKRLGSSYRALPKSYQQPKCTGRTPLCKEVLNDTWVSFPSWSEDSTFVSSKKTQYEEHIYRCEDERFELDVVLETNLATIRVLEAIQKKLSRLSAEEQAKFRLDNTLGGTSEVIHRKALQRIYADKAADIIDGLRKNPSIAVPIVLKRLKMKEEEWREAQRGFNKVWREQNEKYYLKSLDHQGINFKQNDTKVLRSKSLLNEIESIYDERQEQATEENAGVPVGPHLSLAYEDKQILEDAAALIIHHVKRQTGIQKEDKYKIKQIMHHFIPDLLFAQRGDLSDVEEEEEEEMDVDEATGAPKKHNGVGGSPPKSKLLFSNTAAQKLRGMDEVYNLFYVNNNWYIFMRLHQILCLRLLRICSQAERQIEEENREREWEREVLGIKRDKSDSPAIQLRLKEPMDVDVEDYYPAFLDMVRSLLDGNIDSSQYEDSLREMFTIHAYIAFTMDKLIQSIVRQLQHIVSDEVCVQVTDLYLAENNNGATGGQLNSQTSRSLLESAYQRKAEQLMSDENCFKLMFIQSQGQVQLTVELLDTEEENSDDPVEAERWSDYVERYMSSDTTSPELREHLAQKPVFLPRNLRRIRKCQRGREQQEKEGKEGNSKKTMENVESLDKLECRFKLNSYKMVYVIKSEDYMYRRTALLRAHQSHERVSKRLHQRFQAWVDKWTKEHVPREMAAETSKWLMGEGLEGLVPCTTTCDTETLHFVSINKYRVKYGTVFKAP


Each binder was assayed against T1, Sin3a-3xFLAG (mouse) (assay: affinity purification with mass spectrometry; anti-FLAG M2 resin, 4 h at 4 °C, with 13-15 mg nuclear extract of E14tg2a ES cells expressing Sin3a-3xFLAG or 3xFLAG alone; IP buffer 25 mM HEPES-KOH pH 7.6, 140 mM KCl, 10% glycerol, 0.1% Igepal CA-630; washes with 250 mM KCl; elution with 3x FLAG peptide; SDS-PAGE and LC-MS/MS; four independent pull downs).

| Binder | binding |
| --- | --- |
| YTH domain family protein 1 (protein, UniProt P59326 1-559) MSATSVDPQRTKGQDNKVQNGSLHQKDAVHDNDFEPYLSGQSNPSNSYPSMSDPYLSSYYPPSIGFPYSLSEAPWSTAGDPPIPYLTTYGQLSNGDHHFMHDAVFGQPGGLGNNIYQHRFNFFPENPAFSAWGTSGSQGQQTQSSAYGSSYTYPPSSLGGTVVDGQTGFHSDSLNKAPGMNSLEQGMVGLKIGDVTTSAVKTVGSVVNSVALTGVLSGNGGTNVNMPVSKPTSWAAIASKPAKPQPKMKTKSGPIVGGALPPPPIKHNMDIGTWDNKGPAPKASAPQQTPSPQAAPQPQQVAQPLPVQPPPLVQPQYQSPQQPLQPRWVAPRNRNAAFGQSGGANSDSNSVGNAQPTSAPSVESHPVLEKLKAAHSYNPKEFDWNLKSGRVFIIKSYSEDDIHRSIKYSIWCSTEHGNKRLDGAFRSMSSKGPVYLLFSVNGSGHFCGVAEMKSPVDYGTSAGVWSQDKWKGKFDVKWIFVKDVPNNQLRHIRLENNDNKPVTNSRDTQEVPLEKAKQVLKIIASYKHTTSIFDDFSHYEKRQEEEEVVRKERQNRNKQ | binds |
| Hbp1 (protein, UniProt Q8R316 1-516) MVWEVKTNQMPNAVQKLLLVMDKRAPGMSDSLELLQCNENLPSSPGYNSCDEHMELDDLPELQAVQSDPTQSAIYQLSSDVSHQEYPRSSWSQNTSDIPENTHREDEVDWLTELANIATSPQSPLMQCSFYNRSSPVHIIATSKSLHSYARPPPVSSSSKSGPAFPHDHWKEETPVRHERANSESESGIFCMSSLSDDDDLGWCNSWPSTIWHCFLKGTRLCFHKESNKEWQDVEDFARAASCDNEEEIQMGTHKGYGSDGLKLLSHEESVSFGESVLKLTFDPGTVEDGLLTVECKLDHPFYVKNKGWSSFYPSLTVVQHGIPCCEIHIGDVCLPPGHPDAINFDDSGVFDTFKSYDFTPMDSSAVYVLSSMARQRRASLSCGGGPGTGQEFSGSEFSKSCGSPGSSQLSSSSLYAKAVKSHSSGTVSATSPNKCKRPMNAFMLFAKKYRVEYTQMYPGKDNRAISVILGDRWKKMKNEERRMYTLEAKALAEEQKRLNPDCWKRKRTNSGSQQH | binds |
| Arid4a (protein, UniProt F8VPQ2 1-1261) MKAADEPAYLTVGTDVSAKYRGAFCEAKIKTVKRLVKVKVLLKQDNTTQLVQDDQVKGPLRVGAIVETRTSDGSIQEAIISKLTDASWYTVVFDDGDERTLRRTSLCLKGERHFAESETLDQLPLTNPEHFGTPVIAKKTNRGRRSSLPITEDEKEEESSEEEDEDKRRLNDELLGKVVSVASTAESTGWYPALVVSPSCNDDVTVKKDQCLVRSFIDSKFYSIARKDIKELDILTLPESELCARPGLRRASVFLKGRIVPDNWKMDISEILESSSSDDEECPAEEHEEEKEKEAKKEEEELPEEELDPEERDNFLQQLYKFMEDRGTPINKPPVLGYKDLNLFKLFRLVYHQGGCGNIDSGAVWKQIYMDLGIPILNSAASYNVKTAYRKYLYGFEEYCRSANIQFRTIHHHEPKVKEEKKDFEDSMDEALKEAPEMPLLDVKSEPEENTDSNSESDREDTELKSPRGRRKIVRDANCIKKEIEEEKIEDKFLRDDLENKDAGDDDDDGDPAAKREHELLFGRKSTPKNKEKKIKKPEDSERDSDEEEEKSQEREETESRCDSEGEDEEDDTEPCLTGTKVKVKYGRGKTQKIYEASIKSTEMDDGEILYLVHYYGWNVRYDEWVKADRIIWPLDKGGPKKKQKKKVKNKEDSEKDEKRDEERQKSKRGRPPLKSTFSPNMPYSLSKTSNSEGKSDSCSSDSEADDQLEKSSGGEDLSPDVKEELEKNENAHDDKLDEENPKIVHISKENDRTQAQPSDTLTVEAGDSDQIVHIFGDKVDQVEEFKKQVEKSPKGKGRRSKTKDLSLELIKISPFGQEEAGSEAHGDVHSLEFSSLECKNFSSTEDDIDPYEKEKKLKRKILGQQSPEKKLRLDNGMEMTTGVSQERSDDGAGAEGMKGAHVEQHFETEGEGMPSLTAEPDQGLQELTSEKSDSPAEEEPVHTPLKEEEDAMPLIGPETLVCHEVDLDDLDEKDKTSIEDVVVEGSESNSLASVPPALPPVAQHNFSVASPLTLSQDESRSIKSESDITIEVDSIAEESQEGLCERESANGFEASVASGACSIIAHERESREKGQKRPSDGNSGLIAKKQKRTPKRTSAAAKTEKNGAGQSSDSEDLPAMDSSSNCTPVKRLTLPKSQKLPRSPARTSPHIKDAEKEKHREKHPNSSPRTYKWSFQLNELDNMNSTERISFLQEKLQEIRKYYMSLKSEVATIDRRRKRLKKKDREVSHAGASMSSASSDTGMSPSSSSPPQNVLAVECR | binds |
| Sap130 (protein, UniProt Q8BIH0 1-1057) MSSQQFPRLGTPSPGLSQPPSQIASSGSAGLINQVATVNDEAGRDADVGTREHVGPSSSLPPREEKQEPVVVRPYPQVQMLPAHHAVASATPVAVTAPPAHLTPAVPLSFSEGLMKPPPKPTMPSRPIAPAPPSTMSLPPKVPGQVTVTMESSIPQASAIPVATISGQQGHPSNLHHIMTTNVQMSIIRSNAPGPPLHIGASHLPRGAAAAAVMSSSKVTTVLRPTSQLPNAATAQPAVQHLIHQPIQSRPPVTTSSTIPPAVVATVSATRAQSPVITTTAAHAADSTLSRPTLSIQHPPSAAISIQRPAQSRDVTTRITLPSHPALGTPKQQLHTMAQKTIFSTGTPVAAATVAPILATNTLPSTTTAGSVSHTQAPTSTIVTMTMPSHSSHATAVTTSNIPVAKVVPQQITHTSPRIQPDYPPERSSLIPISGHRASPNPVAMETRNDNRPSVPVQFQYFLPTYPPSAYPLAAHTYTPITSSVSTIRQYPVSAQAPNSTITAQTGVGVASTVHLNPMQLMTVDASHARHIQGIQPAPISTQGIQPAPIGTSGIQPAPIGTPGIHSAAPINTQGLQPAAMANQQPQPEGKTSAVVLADGATIVANPISNPFSAAPAATTVVQTHSQSASTNTPAQGSSPRPSILRKKPATDGMAVRKTLLPPQPPDVATPRVESSMRSASGSPRPAGAKPKSEVHVSIATPVTVSLETISNQNAEQPTVAVPPTAQQPPPTIPSMIAAASPPSQPAIALSTIPGAVPVTPPITTIAATPTLSAPVGGTPSTVLGPPVPEIKVKEEAEPVDITRPVSTVPPLATNTVSPSLALLASNLSMPPSDLPPGASPRKKPRKQQHVISTEEGDMMETNSTDDEKSAAKSLLVKAEKRKSPPKEYIDEEGVRYVPVRPRPPITLLRHYRNPWKAAYHHFQRYSDVRVKEEKKAMLQEIANQKGVSCRAQGWKVHLCAAQLLQLTNLEHDVYERLTNLQEGIIPKKKAATDDDLHRINELIQGNMQRCKLVMDQISEARDSMLKVLDHKDRVLKLLNKNGTVKKVSKLKRKEKV | binds |

More lines, now with the values ahead:

| binding | Binder |
| --- | --- |
| binds | Ing1 (protein, UniProt Q9QXV3 1-279) MLSPANGEQIHLVNYVEDYLDSIESLPFDLQRNVSLMREIDAKYQEILKELDDYYEKFKRETDGTQKRRVLHCIQRALIRSQELGDEKIQIVSQMVELVENRSRQVDSHVELFEAHQDISDGTGGSGKAGQDKSKSEAITQADKPNNKRSRRQRNNENRENASNNHDHDDITSGTPKEKKAKTSKKKKRSKAKAEREASPADLPIDPNEPTYCLCNQVSYGEMIGCDNDECPIEWFHFSCVGLNHKPKGKWYCPKCRGESEKTMDKALEKSKKERAYNR |
| binds | Suds3 (protein, UniProt Q8BR65 1-328) MSAAGLLAPAPAPAAAPAAPEYYPEDEEELESAEDDERSCRGRESDEDTEDASETDLAKHDEEDYVEMKEQMYQDKLASLKRQLQQLQEGTLQEYQKRMKKLDQQYRERIRNAELFLQLETEQVERNYIKEKKAAVKEFEDKKVELKENLIAELEEKKKMIENEKLTMELTGDSMEVKPIMTRKLRRRPNDPVPIPDKRRKPAPAQLNYLLTDEQIMEDLRTLNKLKSPKRPASPSSPEHLPATPAESPAQRFEARIEDGKLYYDKRWYHKSQAIYLESKDNQKLSCVISSVGANEIWVRKTSDSTKMRIYVGQLQRGLFVIRRRSAA |
| binds | Mnt (protein, UniProt O08789 1-591) MSIETLLEAARFLEWQAQQQQRAREEQERLRLEREREREQEQKRASNLARLAHALPVEEPRIEAPPLPLSPPAPPPAPPPPLATPAPLTVIPIPVVTNSPQSLPPPPPLPPAAQPLPLAPRQPALVSTPGLSIKEPVTLPTRPQVPTPAPLLPDAKTTVAPTGSPKPLQPLPAPILTIAPHPGVQPQLAPQQPPPPTLGTLKLAPAEEAKSSEQKKRPGGIGTREVHNKLEKNRRAHLKECFETLKRNIPNVDDKKTSNLSVLRTALRYIQSLKRKEKEYEHEMERLAREKIATQQRLAELKHELSQWMDVLEIDRVLRQTGQPEDDQASTSTASEGEDNVDEEMEGDRAGLGPPKLNHRPQPELLKSALPTPSTAPAPLPTHPHPHPHPVALSPAHLPVQQQQPPQQKTPLPAPPPPPATPTQTLVPAPAHLVATAGGGSTVIAHTATTHASVIQTVNHVLQGPGGKHIAHIAPSAPSPAVQLAPATPPIGHITVHPATLNHVAHLGSQLPLYPQPVAVSQPVAVSHIAHTLSHQQVNGTAGLGPPATVMAKPAVGAQVVHHPQLVGQTVLNPVTMVTMPSFPVSTLKLA |
